{"source": "the supplement of paper PMC4604168 (melanoma cell lines)", "note": "This is one part of the list. Many values rest on one well or one pass, so single values are uncertain.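 Cells were imaged in 1,536-well plates, and nuclei stained with an antibody against cleaved PARP were counted against all DNA-stained nuclei to give the apoptosis fraction. Screening doses were chosen to leave most cells alive, and resting and induced cleaved-PARP levels differ strongly between cell lines.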", "data": [{"test_system": "WM3619", "assay": "cleaved PARP positive nuclei fraction relative to DMSO control; melanoma cells; higher = more apoptosis", "conditions": "library dose: low library concentration; 72 h", "units": {"cleaved PARP positive nuclei fraction": "%"}, "values": [{"compound": "CO[C@H]1C[C@@H]2CC[C@@H](C)[C@@](O)(O2)C(=O)C(=O)N2CCCC[C@H]2C(=O)O[C@H]([C@H](C)C[C@@H]2CC[C@@H](OCCO)[C@H](OC)C2)CC(=O)[C@H](C)/C=C(\\C)[C@@H](O)[C@@H](OC)C(=O)[C@H](C)C[C@H](C)/C=C/C=C/C=C/1C", "note": "[everolimus] + c1cc(-c2cnn3cc(-c4ccc(OCCN5CCCCC5)cc4)cnc23)ccn1 [Dorsomorphin] (first compound 0.02 µM, partner dose 0.4 µM)", "cleaved PARP positive nuclei fraction": 99.6}, {"compound": "Cn1c(=O)n(-c2ccc(C(C)(C)C#N)cc2)c2c3cc(-c4cnc5ccccc5c4)ccc3ncc21", "note": "+ CO[C@H]1C[C@@H]2CC[C@@H](C)[C@@](O)(O2)C(=O)C(=O)N2CCCC[C@H]2C(=O)O[C@H]([C@H](C)C[C@@H]2CC[C@@H](OCCO)[C@H](OC)C2)CC(=O)[C@H](C)/C=C(\\C)[C@@H](O)[C@@H](OC)C(=O)[C@H](C)C[C@H](C)/C=C/C=C/C=C/1C [everolimus] (first compound 0.004 µM, partner dose 0.02 µM)", "cleaved PARP positive nuclei fraction": 231}, {"compound": "C[C@@H](Oc1cc(-c2cnn(C3CCNCC3)c2)cnc1N)c1c(Cl)ccc(F)c1Cl", "note": "[Crizotinib] + CNC(=O)c1cc(Oc2ccc(NC(=O)Nc3ccc(Cl)c(C(F)(F)F)c3)cc2)ccn1 [sorafenib] (first compound 0.2 µM, partner dose 0.4 µM)", "cleaved PARP positive nuclei fraction": 92.8}, {"compound": "CO[C@H]1C[C@@H]2CC[C@@H](C)[C@@](O)(O2)C(=O)C(=O)N2CCCC[C@H]2C(=O)O[C@H]([C@H](C)C[C@@H]2CC[C@@H](OCCO)[C@H](OC)C2)CC(=O)[C@H](C)/C=C(\\C)[C@@H](O)[C@@H](OC)C(=O)[C@H](C)C[C@H](C)/C=C/C=C/C=C/1C", "note": "[everolimus] + O=C(Nc1cccc(Cl)c1)Nc1ncc(CCNc2ncnc3ccsc23)s1 [SNS314] (first compound 0.02 µM, partner dose 0.0008 µM)", "cleaved PARP positive nuclei fraction": 153}, {"compound": "CO[C@H]1C[C@@H]2CC[C@@H](C)[C@@](O)(O2)C(=O)C(=O)N2CCCC[C@H]2C(=O)O[C@H]([C@H](C)C[C@@H]2CC[C@@H](OCCO)[C@H](OC)C2)CC(=O)[C@H](C)/C=C(\\C)[C@@H](O)[C@@H](OC)C(=O)[C@H](C)C[C@H](C)/C=C/C=C/C=C/1C", "note": "[everolimus] + Oc1nc(-c2ccc(C(F)(F)F)cc2)nc2c1CSCC2 [XAV939] (first compound 0.02 µM, partner dose 2 µM)", "cleaved PARP positive nuclei fraction": 149}, {"compound": "CO[C@H]1C[C@@H]2CC[C@@H](C)[C@@](O)(O2)C(=O)C(=O)N2CCCC[C@H]2C(=O)O[C@H]([C@H](C)C[C@@H]2CC[C@@H](OCCO)[C@H](OC)C2)CC(=O)[C@H](C)/C=C(\\C)[C@@H](O)[C@@H](OC)C(=O)[C@H](C)C[C@H](C)/C=C/C=C/C=C/1C", "note": "[everolimus] + Cc1nc(Nc2ncc(C(=O)Nc3c(C)cccc3Cl)s2)cc(N2CCN(CCO)CC2)n1 [dasatanib] (first compound 0.02 µM, partner dose 0.004 µM)", "cleaved PARP positive nuclei fraction": 130}, {"compound": "CO[C@H]1C[C@@H]2CC[C@@H](C)[C@@](O)(O2)C(=O)C(=O)N2CCCC[C@H]2C(=O)O[C@H]([C@H](C)C[C@@H]2CC[C@@H](OCCO)[C@H](OC)C2)CC(=O)[C@H](C)/C=C(\\C)[C@@H](O)[C@@H](OC)C(=O)[C@H](C)C[C@H](C)/C=C/C=C/C=C/1C", "note": "[everolimus] + CC1(C)NC(=O)N(c2ccc([N+](=O)[O-])c(C(F)(F)F)c2)C1=O [nilutamide] (first compound 0.02 µM, partner dose 1 µM)", "cleaved PARP positive nuclei fraction": 147}, {"compound": "CO[C@H]1C[C@@H]2CC[C@@H](C)[C@@](O)(O2)C(=O)C(=O)N2CCCC[C@H]2C(=O)O[C@H]([C@H](C)C[C@@H]2CC[C@@H](OCCO)[C@H](OC)C2)CC(=O)[C@H](C)/C=C(\\C)[C@@H](O)[C@@H](OC)C(=O)[C@H](C)C[C@H](C)/C=C/C=C/C=C/1C", "note": "[everolimus] + Nc1cccc2c1CN(C1CCC(=O)NC1=O)C2=O [lenalidomide] (first compound 0.02 µM, partner dose 1 µM)", "cleaved PARP positive nuclei fraction": 119}, {"compound": "CO[C@H]1C[C@@H]2CC[C@@H](C)[C@@](O)(O2)C(=O)C(=O)N2CCCC[C@H]2C(=O)O[C@H]([C@H](C)C[C@@H]2CC[C@@H](OCCO)[C@H](OC)C2)CC(=O)[C@H](C)/C=C(\\C)[C@@H](O)[C@@H](OC)C(=O)[C@H](C)C[C@H](C)/C=C/C=C/C=C/1C", "note": "[everolimus] + Nc1nc(F)nc2c1ncn2[C@@H]1O[C@H](CO)[C@@H](O)[C@@H]1O [fludarabine] (first compound 0.02 µM, partner dose 0.2 µM)", "cleaved PARP positive nuclei fraction": 110}, {"compound": "CO[C@H]1C[C@@H]2CC[C@@H](C)[C@@](O)(O2)C(=O)C(=O)N2CCCC[C@H]2C(=O)O[C@H]([C@H](C)C[C@@H]2CC[C@@H](OCCO)[C@H](OC)C2)CC(=O)[C@H](C)/C=C(\\C)[C@@H](O)[C@@H](OC)C(=O)[C@H](C)C[C@H](C)/C=C/C=C/C=C/1C", "note": "[everolimus] + C=CCn1c(=O)c2cnc(Nc3ccc(N4CCN(C)CC4)cc3)nc2n1-c1cccc(C(C)(C)O)n1 [MK1775] (first compound 0.02 µM, partner dose 0.02 µM)", "cleaved PARP positive nuclei fraction": 184}, {"compound": "CO[C@H]1C[C@@H]2CC[C@@H](C)[C@@](O)(O2)C(=O)C(=O)N2CCCC[C@H]2C(=O)O[C@H]([C@H](C)C[C@@H]2CC[C@@H](OCCO)[C@H](OC)C2)CC(=O)[C@H](C)/C=C(\\C)[C@@H](O)[C@@H](OC)C(=O)[C@H](C)C[C@H](C)/C=C/C=C/C=C/1C", "note": "[everolimus] + Nc1ncn([C@H]2C[C@H](O)[C@@H](CO)O2)c(=O)n1 [decitabine] (first compound 0.02 µM, partner dose 0.1 µM)", "cleaved PARP positive nuclei fraction": 151}, {"compound": "CO[C@H]1C[C@@H]2CC[C@@H](C)[C@@](O)(O2)C(=O)C(=O)N2CCCC[C@H]2C(=O)O[C@H]([C@H](C)C[C@@H]2CC[C@@H](OCCO)[C@H](OC)C2)CC(=O)[C@H](C)/C=C(\\C)[C@@H](O)[C@@H](OC)C(=O)[C@H](C)C[C@H](C)/C=C/C=C/C=C/1C", "note": "[everolimus] + CC(C)(C)c1cnc(CSc2cnc(NC(=O)C3CCNCC3)s2)o1 [SNS-032] (first compound 0.02 µM, partner dose 0.01 µM)", "cleaved PARP positive nuclei fraction": 127}, {"compound": "CO[C@H]1C[C@@H]2CC[C@@H](C)[C@@](O)(O2)C(=O)C(=O)N2CCCC[C@H]2C(=O)O[C@H]([C@H](C)C[C@@H]2CC[C@@H](OCCO)[C@H](OC)C2)CC(=O)[C@H](C)/C=C(\\C)[C@@H](O)[C@@H](OC)C(=O)[C@H](C)C[C@H](C)/C=C/C=C/C=C/1C", "note": "[everolimus] + Cc1cc([N+](=O)[O-])ccc1NS(=O)(=O)c1cc(Cl)ccc1Cl [FH535] (first compound 0.02 µM, partner dose 1 µM)", "cleaved PARP positive nuclei fraction": 136}, {"compound": "CO[C@H]1C[C@@H]2CC[C@@H](C)[C@@](O)(O2)C(=O)C(=O)N2CCCC[C@H]2C(=O)O[C@H]([C@H](C)C[C@@H]2CC[C@@H](OCCO)[C@H](OC)C2)CC(=O)[C@H](C)/C=C(\\C)[C@@H](O)[C@@H](OC)C(=O)[C@H](C)C[C@H](C)/C=C/C=C/C=C/1C", "note": "[everolimus] + O=C(O)c1ccc(-c2c[nH]c3ncc(-c4ccccc4)cc23)cc1C1CCCC1 [GSK650394] (first compound 0.02 µM, partner dose 0.16 µM)", "cleaved PARP positive nuclei fraction": 116}, {"compound": "CO[C@H]1C[C@@H]2CC[C@@H](C)[C@@](O)(O2)C(=O)C(=O)N2CCCC[C@H]2C(=O)O[C@H]([C@H](C)C[C@@H]2CC[C@@H](OCCO)[C@H](OC)C2)CC(=O)[C@H](C)/C=C(\\C)[C@@H](O)[C@@H](OC)C(=O)[C@H](C)C[C@H](C)/C=C/C=C/C=C/1C", "note": "[everolimus] + COc1ccc(COc2ccc(Cc3cnc(N)nc3N)cc2OC)cc1 [GW2580] (first compound 0.02 µM, partner dose 1 µM)", "cleaved PARP positive nuclei fraction": 16.8}, {"compound": "CO[C@H]1C[C@@H]2CC[C@@H](C)[C@@](O)(O2)C(=O)C(=O)N2CCCC[C@H]2C(=O)O[C@H]([C@H](C)C[C@@H]2CC[C@@H](OCCO)[C@H](OC)C2)CC(=O)[C@H](C)/C=C(\\C)[C@@H](O)[C@@H](OC)C(=O)[C@H](C)C[C@H](C)/C=C/C=C/C=C/1C", "note": "[everolimus] + O=S(=O)(c1ccccc1)N(CC(F)(F)F)c1ccc(C(O)(C(F)(F)F)C(F)(F)F)cc1 [T0901317] (first compound 0.02 µM, partner dose 1.4 µM)", "cleaved PARP positive nuclei fraction": 152}, {"compound": "Cn1c(=O)n(-c2ccc(C(C)(C)C#N)cc2)c2c3cc(-c4cnc5ccccc5c4)ccc3ncc21", "note": "+ CN1CCN(c2ccc3nc(-c4c(N)c5c(F)cccc5[nH]c4=O)[nH]c3c2)CC1 [Dovitinib] (first compound 0.004 µM, partner dose 0.1 µM)", "cleaved PARP positive nuclei fraction": 98}, {"compound": "CO[C@H]1C[C@@H]2CC[C@@H](C)[C@@](O)(O2)C(=O)C(=O)N2CCCC[C@H]2C(=O)O[C@H]([C@H](C)C[C@@H]2CC[C@@H](OCCO)[C@H](OC)C2)CC(=O)[C@H](C)/C=C(\\C)[C@@H](O)[C@@H](OC)C(=O)[C@H](C)C[C@H](C)/C=C/C=C/C=C/1C", "note": "[everolimus] + COc1cc(Nc2ncc(F)c(Nc3ccc4c(n3)NC(=O)C(C)(C)O4)n2)cc(OC)c1OC [Tamatinib] (first compound 0.02 µM, partner dose 0.4 µM)", "cleaved PARP positive nuclei fraction": 99.3}]}]}
